Values quoted from earlier work as cited in patent US5135753A, “Method and therapeutic system for smoking cessation” (Pharmetrix Corporation, priority 1991, dated 1992).

System: skin
Conditions: average penetration rate through the skin; very approximate figures

In the case of `CN1[C@@H]2C[C@@H](OC(=O)[C@H](CO)c3ccccc3)C[C@H]1[C@@H]1O[C@@H]12` [scopolamine], the skin flux is listed as 2-8 μg/cm^2.h.
